Consider three molecules from article doi:10.1101/2025.09.26.678709, “MRAP2 potentiates GPCR signaling by conserved mechanisms that are disrupted by obesity-associated genetic variants” (bioRxiv, 2025).

Protein sequences, listed by entry. Tags and fused reporters are not part of them.
UniProt Q92847: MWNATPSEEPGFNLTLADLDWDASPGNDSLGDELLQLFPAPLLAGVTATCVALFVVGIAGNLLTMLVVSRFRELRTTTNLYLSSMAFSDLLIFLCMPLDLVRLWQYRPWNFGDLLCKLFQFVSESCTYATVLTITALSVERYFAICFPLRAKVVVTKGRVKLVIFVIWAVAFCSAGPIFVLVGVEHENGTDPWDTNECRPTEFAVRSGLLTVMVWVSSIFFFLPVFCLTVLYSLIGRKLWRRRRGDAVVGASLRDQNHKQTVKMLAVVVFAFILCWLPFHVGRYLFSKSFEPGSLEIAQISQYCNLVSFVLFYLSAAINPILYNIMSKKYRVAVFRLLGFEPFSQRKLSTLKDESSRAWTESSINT
UniProt P41968: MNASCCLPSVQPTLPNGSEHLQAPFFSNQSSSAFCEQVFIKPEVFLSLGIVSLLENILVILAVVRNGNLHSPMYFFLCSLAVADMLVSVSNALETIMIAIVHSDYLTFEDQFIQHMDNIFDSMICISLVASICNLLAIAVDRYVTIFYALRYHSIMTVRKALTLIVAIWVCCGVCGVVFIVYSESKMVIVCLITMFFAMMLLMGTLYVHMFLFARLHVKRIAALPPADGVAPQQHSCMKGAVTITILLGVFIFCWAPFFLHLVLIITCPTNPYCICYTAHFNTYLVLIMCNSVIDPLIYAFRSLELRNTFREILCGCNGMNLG
UniProt P32121: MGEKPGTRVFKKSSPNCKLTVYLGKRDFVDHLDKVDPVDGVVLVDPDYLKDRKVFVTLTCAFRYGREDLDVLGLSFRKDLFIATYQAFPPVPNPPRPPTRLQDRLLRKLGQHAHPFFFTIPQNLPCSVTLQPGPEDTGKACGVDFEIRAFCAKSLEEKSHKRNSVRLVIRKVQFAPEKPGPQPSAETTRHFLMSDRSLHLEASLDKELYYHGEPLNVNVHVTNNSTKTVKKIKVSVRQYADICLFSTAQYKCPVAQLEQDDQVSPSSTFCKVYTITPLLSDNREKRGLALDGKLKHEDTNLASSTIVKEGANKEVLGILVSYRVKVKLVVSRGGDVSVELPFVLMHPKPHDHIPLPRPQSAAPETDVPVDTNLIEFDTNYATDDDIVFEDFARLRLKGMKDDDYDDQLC

No constants are given. Whether binding was seen depends on the method and setting. In cells and extracts the contact can be indirect. Some results given as binding are weak or reduced against the parent protein; the word gives no strength. For part of these data: Sequences can lack the tags named with a protein.

In experiment [1] the target is T1, HA-Halo-MRAP2 (human, UniProt Q96G30 1-205, CA-Sulfo646 dye on the Halo tag).
T1 construct: melanocortin receptor-2 accessory protein-2 (MRAP2), human; N-terminal signal peptide from rat mGluR2 in the construct; also called melanocortin receptor-2 accessory protein-2; source: HEK293, transfected, in lysate (LMNG-CHS); not shown: HA, N-terminal, kept; Halo, N-terminal, kept
T1 sequence (looked up): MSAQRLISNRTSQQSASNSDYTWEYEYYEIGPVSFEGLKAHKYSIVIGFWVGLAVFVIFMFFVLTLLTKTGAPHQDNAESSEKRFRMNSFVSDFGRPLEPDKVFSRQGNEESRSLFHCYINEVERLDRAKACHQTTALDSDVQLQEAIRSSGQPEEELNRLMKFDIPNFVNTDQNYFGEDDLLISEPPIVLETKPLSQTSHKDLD
As to the kind of experiment: single-molecule pull-down (SiMPull) with photobleaching step counting; earlier two-color datasets of ref. 8 reanalysed here: MC3R co-expressed with Halo-MRAP2 or CLIP-MRAP2, monomeric against oligomeric GPCR.

The target of experiment [2] is GHSR-Rluc8 (UniProt Q92847). As to the kind of experiment: FRET or BRET; AdHEK or mHypo-N39 cells with 50 ng GHSR-Rluc8, 500 ng β-arrestin-2 acceptor and 50 ng pcDNA3.1 or 3xFLAG-MRAP2; coelenterazine-H, 37°C, agonist MK-0677.
Experiment [3] concerns the target MC3R (co-expressed with pcDNA or CLIP-MRAP2 in SiMPull) (human) (UniProt P41968). As to the kind of experiment: single-molecule pull-down (SiMPull) with photobleaching step counting; earlier two-color datasets of ref. 8 reanalysed here: MC3R co-expressed with Halo-MRAP2 or CLIP-MRAP2, monomeric against oligomeric GPCR.

As for “MC3R (co-expressed with Halo-MRAP2 in SiMPull) (from UniProt P41968 1-323) (receptor)”, the binding result in experiment [1] is “binds”.

On to “β-arrestin-2-YFP (from UniProt P32121 1-409)”, for which the binding entry in experiment [2] was “binds”.

B1: FLAG-CLIP-MRAP2 (natural protein, human, UniProt Q96G30 1-205, looked up)
chain: T1 sequence (looked up)
modifications: BC-DY547 dye on the CLIP tag
notes: melanocortin receptor-2 accessory protein-2 (MRAP2), human; N-terminal signal peptide from rat mGluR2 in the construct; source: HEK293, transfected, in lysate (LMNG-CHS); not shown: CLIP, N-terminal, kept
As for B1, the binding entry in experiment [3] is “binds”.
